Reference: patent US20210260225A1, “PROTECTION OF BIOLOGICALLY ACTIVE MOLECULES DURING RADIATION STERILIZATION” (Qiagen Sciences LLC, priority 2018, published 2021)
At least one compound was matched to its structure with a doubt left.

System: white blood cells present in human whole blood samples
Experiment: R848 TLR agonist (NK cell stimulatory) activity after E-beam irradiation (IFN-γ release in whole blood, ELISA)
Assay type: cell-based
Conditions: prepared in DPBS alone; E-beam 8.3 kGy and higher
Protocol: R848 (resiquimod, CAS 144875-48-9) is a toll-like receptor (TLR) agonist which can stimulate biological responses by natural killer (NK) cells, and its activity can be measured in the […] tubes (QIAGEN, Inc., Germantown, Md.) QFN whole blood culture system. […] Following incubation with the R848 samples in the QFN tubes, whole blood sample processing, plasma harvesting and IFN-γ ELISA were performed according to the QuantiFERON®-TB Gold Plus package insert (QFN-TB Gold Plus, QIAGEN, Inc., Germantown, Md.) except that the plasma samples were diluted 1:10 in ELISA kit Green Diluent immediately before testing on 8-point standard curves.

Q: Which “R848 activity (group mean IFN-γ response) after E-beam, unprotected (FIG. 6)” value does the source give for `CCOCc1nc2c(N)nc3ccccc3c2n1CC(C)(C)O` [R848, resiquimod, reference compound] here?
A: completely abolished
